This test concerns the target strep-SUMO-fused RNF20 residues 321–900 (human) (UniProt Q5VTR2). Briefly: sequential affinity co-purification; mixed E. coli cell extracts; strep-tactin resin (strep-SUMO-RNF20), then dextrin resin (MBP-RNF40), gel filtration.

By UniProt entry, the sequences of proteins in these tests, tags left out. Residues count along the entry.
UniProt Q5VTR2, residues 321-900: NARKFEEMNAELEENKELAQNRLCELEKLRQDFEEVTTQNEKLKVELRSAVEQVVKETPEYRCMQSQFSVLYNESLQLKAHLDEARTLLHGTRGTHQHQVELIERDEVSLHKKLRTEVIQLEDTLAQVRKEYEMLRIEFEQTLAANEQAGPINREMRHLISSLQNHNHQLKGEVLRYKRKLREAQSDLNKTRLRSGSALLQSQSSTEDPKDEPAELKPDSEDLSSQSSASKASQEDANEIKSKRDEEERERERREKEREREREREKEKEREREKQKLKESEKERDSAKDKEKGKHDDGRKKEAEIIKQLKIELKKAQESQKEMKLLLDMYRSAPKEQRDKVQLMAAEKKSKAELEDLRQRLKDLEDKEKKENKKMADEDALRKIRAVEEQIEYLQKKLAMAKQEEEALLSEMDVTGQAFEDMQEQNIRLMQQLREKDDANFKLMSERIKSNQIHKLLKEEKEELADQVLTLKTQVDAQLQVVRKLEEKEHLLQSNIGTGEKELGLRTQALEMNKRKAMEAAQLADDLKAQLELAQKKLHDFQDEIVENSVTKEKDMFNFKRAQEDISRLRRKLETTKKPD
UniProt O75150, residues 327-926: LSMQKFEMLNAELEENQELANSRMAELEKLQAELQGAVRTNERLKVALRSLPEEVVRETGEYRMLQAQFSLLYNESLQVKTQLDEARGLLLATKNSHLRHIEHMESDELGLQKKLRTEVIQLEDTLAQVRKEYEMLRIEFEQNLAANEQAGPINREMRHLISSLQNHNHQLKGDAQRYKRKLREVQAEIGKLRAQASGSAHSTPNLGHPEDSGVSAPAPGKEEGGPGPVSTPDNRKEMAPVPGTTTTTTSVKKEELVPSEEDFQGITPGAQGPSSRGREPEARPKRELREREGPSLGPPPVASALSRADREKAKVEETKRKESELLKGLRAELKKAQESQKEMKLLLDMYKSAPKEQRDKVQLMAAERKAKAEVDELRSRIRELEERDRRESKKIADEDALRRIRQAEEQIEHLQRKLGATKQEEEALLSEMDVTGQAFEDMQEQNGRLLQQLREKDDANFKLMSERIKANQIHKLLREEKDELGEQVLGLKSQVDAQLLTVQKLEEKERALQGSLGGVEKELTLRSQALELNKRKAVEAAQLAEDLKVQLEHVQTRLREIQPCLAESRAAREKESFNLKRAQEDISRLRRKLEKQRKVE

These results are taken from publication PMC12802937.

These are yes or no findings as the source states them, for the method shown. Some entries that bind do so weakly or less than the wild type.

Take “MBP-fused RNF40 residues 327–926 (from UniProt O75150 327-926) (domain or fragment)”: the binding entry was “binds”.
